Reference: the supplement of paper PMC3334620
Over roughly 33,000 sequences, “E-score (-0.5 to 0.5)” has its median near -0.016; the highest 2% begin near 0.3. The list shows a part of the results.

target: T1, Yer184c (UniProt P39961); test: PBM E-score (8-mer binding enrichment) (E-score (-0.5 to 0.5)); higher = stronger / more preferred TF binding; details: protein concentration: 100 nM; construct: GST-full length
T1 sequence: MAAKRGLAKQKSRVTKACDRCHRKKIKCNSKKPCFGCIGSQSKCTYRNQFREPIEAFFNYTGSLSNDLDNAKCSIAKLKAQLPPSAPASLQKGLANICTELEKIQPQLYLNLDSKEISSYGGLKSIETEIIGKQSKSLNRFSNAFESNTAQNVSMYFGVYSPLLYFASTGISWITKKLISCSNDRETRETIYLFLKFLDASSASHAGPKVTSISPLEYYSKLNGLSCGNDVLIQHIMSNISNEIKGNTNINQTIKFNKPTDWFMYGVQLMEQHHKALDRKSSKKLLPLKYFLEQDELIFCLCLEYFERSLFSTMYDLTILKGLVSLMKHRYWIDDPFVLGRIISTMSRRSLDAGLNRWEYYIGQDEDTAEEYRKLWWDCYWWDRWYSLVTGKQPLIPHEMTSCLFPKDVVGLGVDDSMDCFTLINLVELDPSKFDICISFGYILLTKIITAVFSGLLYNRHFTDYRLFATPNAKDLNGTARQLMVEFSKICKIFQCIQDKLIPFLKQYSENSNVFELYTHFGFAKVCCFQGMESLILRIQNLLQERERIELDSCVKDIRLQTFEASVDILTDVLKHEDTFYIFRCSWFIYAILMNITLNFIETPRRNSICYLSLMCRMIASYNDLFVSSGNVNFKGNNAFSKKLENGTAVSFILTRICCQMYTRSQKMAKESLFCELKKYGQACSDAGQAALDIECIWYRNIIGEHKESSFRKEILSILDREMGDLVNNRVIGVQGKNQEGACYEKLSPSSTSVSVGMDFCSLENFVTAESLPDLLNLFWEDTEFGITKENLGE
Outline: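 Each ungapped eight-base word and its reverse complement, pooled, received an E-score from the Universal PBM Analysis Suite. Underlying scans, normalised with masliner, recorded fluorescent anti-GST bound to GST-tagged yeast transcription factors. These were applied at about 100-200 nM to universal all-10-mer Agilent arrays double-stranded by primer extension.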

Sequence | PBM E-score
ATGGTCAC | -0.114
AGGCAGTG | -0.184
ACCTCTCG | -0.261
ATGTAGCG | -0.243
ATAGAGGA | -0.115
AGGCCGCC | -0.175
GAGATCCC | -0.018
ACCGGCCA | 0.173
AATGGATC | -0.0164
GAGATAAA | 0.173
ACCTCAGA | -0.237
TGCTTCAA | 0.0483
ACATTCCA | -0.024
ATCCCAGA | -0.127
CCACAGAG | -0.188
CCAAAACA | -0.0949
TCTATGAA | 0.112
ACCTGCCA | -0.137
GGCTGCAA | 0.0741
AGTCCATG | -0.198
ACCTGAAC | -0.0787
GCTGATCC | -0.0722
AAAATATC | 0.244
AGAATAAC | -0.0322
CGGTACAA | 0.197

Part of the list above, field by field:
AAAATATC
  PBM E-score: 0.244
AGAATAAC
  PBM E-score: -0.0322
CGGTACAA
  PBM E-score: 0.197

Next results

Sequence | PBM E-score
AAGATGGG | -0.0355
CGTTCTAA | 0.153
GCCGTCGA | 0.00267
TCACCCAA | -0.0225
CAACCACC | 0.0101
ATGGAGGG | -0.291
ATTGCCGC | 0.162
GGCTCCCA | -0.124
AAACAACG | 0.0792
AGGCCTTG | -0.258
GAGGTCGA | -0.158
GTGGATAA | 0.0514
AGAAGCCT | 0.00531
CGGTAGAG | -0.0325
CGGCCCGC | 0.192
AGGCTGGC | -0.313
CGCCAACC | -0.0638
GGTAGAAA | 0.0816
GCATCTCC | -0.155
ACACTCTC | 0.0613
AGCGAAAC | 0.215
CCGCCACA | -0.289
CTTTTTCC | 0.198
AGATATAT | 0.26
AACAACCT | -0.0961

Sequence | PBM E-score
AGGGTATC | -0.0357
AACACGTC | -0.0885
AATACTTG | 0.034
CACGCAGC | -0.152
ATAGATCG | 0.0323
AGTACGTC | -0.104
CAAGTTAG | 0.0439
CTCTAAAA | 0.0513
GCAGCTAC | 0.108
AAGATTTA | 0.101
CCCATGCG | -0.259
TATATCAA | 0.248
CGCCTAAA | -0.0442
AGGTCAGC | 0.00649
AGTGACCC | -0.292
ATTGATCA | 0.103
AATATCGC | 0.0882
CGCGATTA | 0.0355
CCCAAACA | 0.0426
GAGTTTCA | 0.00333
GCGTGTAC | -0.179
CCGTTGTA | 0.211
CCACGCGC | -0.244
GATTTCGC | 0.312
ATAAGCTC | 0.059

Sequence | PBM E-score
ACACGCTG | -0.125
CGAAACCC | 0.049
CATAGTTA | 0.0565
ACTTCGCT | -0.0272
AGCGTGGC | -0.0559
CTGTCGGC | 0.0943
GATTTGAC | -0.0725
CCAGCTGC | -0.101
AATCTATG | 0.0937
GAGGACAA | -0.118
ATAGCCCA | -0.0509
CCCTGACA | -0.18
CCCCGCGA | -0.0621
CGGAGGTC | 0.173
TACAACGA | 0.0907
CAATTTGA | 0.0591
CCTTACAA | -0.037
AGTAGTAG | -0.117
AATATACT | 0.047
ACTTGCCC | -0.154
GGGACCAA | -0.0466
GCTCAGCC | -0.157
CAAACTAA | 0.229
AAGGATTC | -0.165
CGATCCCG | 0.102

Sequence | PBM E-score
TATGGTGA | -0.114
GAGGGGCC | -0.23
CTCCGCCA | -0.0578
GACCATAC | 0.029
GGCGACCC | -0.259
CGTATTGC | 0.0559
ACGTTGGC | -0.185
GGGGTTAC | -0.282
CTTGGACC | -0.236
AGCAGAAC | -0.0159
CGGGAATA | 0.3
ACCTTCCC | -0.14
CTAGCACC | -0.0123
AGCACTTG | -0.338
GACTGGTA | 0.00991
AAACGCAG | 0.131
AAGTTCAG | 0.0998
CGCTGACC | 0.0709
AGTTAAGA | 0.015
GCGCGCAA | 0.116
ACAAGGAA | 0.156
CTACTATA | 0.157
ACAATCCC | 0.116
AAGTTGGT | 0.0483
CAAGTGTA | -0.162

Sequence | PBM E-score
CTATGTGC | -0.119
CGGGCGAC | -0.127
AGTCGTGA | -0.192
CCGGTCTC | 0.0994
AGCATGCG | 0.0983
ACTAGAGA | -0.0738
AGTACTCA | -0.0857
GTACCGGA | 0.285
GGGGGTTA | -0.364
CCGGGATA | 0.315
CGCCGTCC | 0.13
AATCATGT | -0.06
GGTCCTCA | -0.014
AATGGCAG | -0.124
ACATAACA | 0.149
AGGTGACA | -0.049
ATATTTGA | 0.0537
ATGCCTTA | -0.206
AGTCACCA | -0.311
GAGTTTGC | 0.0509
CACTTAAG | 0.217
CTAAGCTC | -0.107
ATGGTGCG | -0.117
ACGGCCCT | -0.124
GCCCATGA | -0.125

Another view of some results above.
Sequence	PBM E-score
GACCATAC	0.029
GGCGACCC	-0.259
CGTATTGC	0.0559
ACGTTGGC	-0.185
GGGGTTAC	-0.282
CTTGGACC	-0.236
AGCAGAAC	-0.0159
CGGGAATA	0.3
ACCTTCCC	-0.14
CTAGCACC	-0.0123
AGCACTTG	-0.338
GACTGGTA	0.00991
AAACGCAG	0.131
AAGTTCAG	0.0998
CGCTGACC	0.0709
AGTTAAGA	0.015
GCGCGCAA	0.116
ACAAGGAA	0.156
CTACTATA	0.157
ACAATCCC	0.116
AAGTTGGT	0.0483
CAAGTGTA	-0.162
CTATGTGC	-0.119
CGGGCGAC	-0.127
AGTCGTGA	-0.192
CCGGTCTC	0.0994
AGCATGCG	0.0983
ACTAGAGA	-0.0738
AGTACTCA	-0.0857
GTACCGGA	0.285
GGGGGTTA	-0.364
CCGGGATA	0.315
CGCCGTCC	0.13
AATCATGT	-0.06
GGTCCTCA	-0.014
AATGGCAG	-0.124
ACATAACA	0.149
AGGTGACA	-0.049
ATATTTGA	0.0537
ATGCCTTA	-0.206
AGTCACCA	-0.311
GAGTTTGC	0.0509
CACTTAAG	0.217
CTAAGCTC	-0.107
ATGGTGCG	-0.117

The list goes on.

Sequence | PBM E-score
GCACGCCC | 0.0562
TCTGGACA | -0.0367
ACTGTCTC | -0.0441
ACTTAAGT | 0.0375
ATTGTGCG | -0.0503
ACAGAGCG | 0.00106
AGGATTCG | 0.0476
AGCTTCGA | -0.0494
CATGAGTA | -0.122
CCCGTCTA | -0.0617
GAGGGGAC | -0.111
CGATTAAC | 0.111
CATTACCG | 0.13
ACAGACCG | 0.0789
ACACATCA | -0.0845
TAGGCGCA | -0.117
CCATGGCA | -0.199
ACCCGGGA | 0.367
GCGGAGTA | 0.0105
CACAATCG | 0.059
GAAACAGC | 0.049
CCGCTAAC | 0.0892
